Assay results: patent US20120101257A1 (UNIVERSITE DE MONTREAL, priority 2009, published 2012)

Assay: general procedure: Fmoc solid-phase peptide synthesis; Rink amide resin; Rink amide MBHA resin
Settings: whole synthesis; for crude mass: TFA salt
[1] = 214 nm, formic acid salt (crude: TFA salt), cyclic, sequence written open
[2] = analytical RP-HPLC (UV 214), formic acid salt (crude: TFA salt), cyclic, sequence written open
[3] = formic acid salt (crude: TFA salt), cyclic, sequence written open
[4] = UV 214, formic acid salt (crude: TFA salt), cyclic, sequence written open
[5] = 214 nm, formic acid salt (crude: TFA salt)
[6] = formic acid salt (crude: TFA salt)
[7] = 214 nm, formic acid salt (crude: TFA salt), cyclic, sequence written open, run 1
[8] = 214 nm, formic acid salt (crude: TFA salt), cyclic, sequence written open, run 2
[9] = on Fmoc loading of Rink resin, formic acid salt (crude: TFA salt), cyclic, sequence written open
[10] = UV 214, formic acid salt (crude: TFA salt)

## (R)-Agl-D-Trp-Ala-Trp-D-Phe-Lys-NH2
[1]
  final HPLC purity: >93%
[2]
  crude HPLC purity: 19%
[3]
  isolated yield: 14%

## (R)-Agl-D-Tyr-D-Thr-D-Val-D-Glu-D-Leu-D-Ala-NH2
[4]
  crude HPLC purity: 55%
  final HPLC purity: >99%
[3]
  difficulty met: measurable amounts of products resulting from incomplete lactamization were observed
  isolated yield: 20%
On Fmoc loading, formic acid salt (crude: TFA salt), cyclic, sequence written open
  isolated yield: 19%

## (R)-Bab-D-Tyr-D-Thr-D-Val-D-Glu-D-Leu-D-Ala-NH2
[5]
  crude HPLC purity: 28% of 54 crude mixture
  final HPLC purity: >99%
[6]
  isolated yield: 10%

## (R)-Bgl-D-Trp-Ala-Trp-D-Phe-Lys-NH2
[1]
  crude HPLC purity: 30%
  final HPLC purity: >97%
[3]
  isolated yield: 5%

## (R)-Bgl-D-Tyr-D-Thr-D-Val-D-Glu-D-Leu-D-Ala-NH2
[1]
  final HPLC purity: >99%
[7]
  crude HPLC purity: 71%
[8]
  crude HPLC purity: 28%
[9]
  isolated yield: 10%
Scale 0.072 mmol, cyclic, sequence written open
  crude mass: 34 mg
Scale 0.072 mmol, formic acid salt (crude: TFA salt), cyclic, sequence written open
  isolated yield: 22%

## (S)-Agl-D-Trp-Ala-Trp-D-Phe-Lys-NH2
[4]
  crude HPLC purity: 30%
  final HPLC purity: >99%
[3]
  isolated yield: 8%

## (S)-Bgl-D-Trp-Ala-Trp-D-Phe-Lys-NH2
[4]
  crude HPLC purity: 39%
  final HPLC purity: 92%
[3]
  isolated yield: 22%

## (S)-Bgl-D-Tyr-D-Thr-D-Val-D-Glu-D-Leu-D-Ala-NH2
[5]
  crude HPLC purity: 70%
  final HPLC purity: >99%
[6]
  isolated yield: 13%
Scale 0.102 mmol
  crude mass: 34 mg

## Ac(R)-Bgl-D-Trp-Ala-Trp-D-Phe-Lys-NH2
[5]
  crude HPLC purity: 20%
  final HPLC purity: >99%
[6]
  isolated yield: 7.4%
On Fmoc loading of Rink resin, formic acid salt (crude: TFA salt)
  isolated yield: 7%

## Agl-D-Tyr-Iaa-D-Glu-D-Leu-NH2
[10]
  crude HPLC purity: 39%
  final HPLC purity: >99%
[6]
  isolated yield: 6%

## Bgl-D-Tyr-Iaa-D-Glu-D-Leu-NH2
[10]
  crude HPLC purity: 48%
  final HPLC purity: >99%
[6]
  isolated yield: 13%

## D-Agl-D-Tyr-Iaa-D-Glu-D-Leu-NH2
[10]
  crude HPLC purity: 44%
  final HPLC purity: >96%
[6]
  isolated yield: 6%

## D-Arg-(R)-Agl-D-Thr-D-Val-D-Glu-D-Leu-D-Ala-NH2
[4]
  crude HPLC purity: 41%
  final HPLC purity: >99%
[3]
  difficulty met: microwave assisted acylation required longer reaction times (>4 h) in the synthesis of analogs 55 and 56
  isolated yield: 15%

## D-Arg-(R)-Bab-D-Thr-D-Val-D-Glu-D-Leu-D-Ala-NH2
[5]
  crude HPLC purity: 45% of 55 crude mixture
  final HPLC purity: >99%
[6]
  isolated yield: 15%

## D-Arg-(R)-Bgl-D-Thr-D-Val-D-Glu-D-Leu-D-Ala-NH2
[1]
  final HPLC purity: >99%
[7]
  crude HPLC purity: 87%
[8]
  crude HPLC purity: 45%
[9]
  isolated yield: 15%
Scale 0.078 mmol, cyclic, sequence written open
  crude mass: 35 mg
Scale 0.078 mmol, formic acid salt (crude: TFA salt), cyclic, sequence written open
  isolated yield: 24%

## D-Arg-(S)-Bgl-D-Thr-D-Val-D-Glu-D-Leu-D-Ala-NH2
[5]
  crude HPLC purity: 82%
  final HPLC purity: >99%
[6]
  isolated yield: 16%
Scale 0.105 mmol
  crude mass: 33 mg

## D-Arg-(S)-Bgl-D-Tyr-D-Thr-D-Val-D-Glu-D-Leu-D-Ala-NH2
[5]
  crude HPLC purity: 56%
  final HPLC purity: >99%
[6]
  isolated yield: 18%
Scale 0.048 mmol
  crude mass: 27 mg

## D-Arg-D-Tyr-(R)-Agl-D-Val-D-Glu-D-Leu-D-Ala-NH2
[4]
  crude HPLC purity: 58%
  final HPLC purity: >99%
[3]
  difficulty met: microwave assisted acylation required longer reaction times (>4 h) in the synthesis of analogs 55 and 56
  isolated yield: 7%

## D-Arg-D-Tyr-(R)-Bab-D-Val-D-Glu-D-Leu-D-Ala-NH2
[5]
  crude HPLC purity: 27% of 56 crude mixture
  final HPLC purity: >99%
[6]
  isolated yield: 3%

## D-Arg-D-Tyr-(R)-Bgl-D-Val-D-Glu-D-Leu-D-Ala-NH2
[1]
  final HPLC purity: >99%
[7]
  crude HPLC purity: 86%
[8]
  crude HPLC purity: 27%
[9]
  isolated yield: 3%
Scale 0.082 mmol, cyclic, sequence written open
  crude mass: 34 mg
Scale 0.082 mmol, formic acid salt (crude: TFA salt), cyclic, sequence written open
  isolated yield: 23%

## D-Arg-D-Tyr-(S)-Bgl-D-Val-D-Glu-D-Leu-D-Ala-NH2
[5]
  crude HPLC purity: 60%
  final HPLC purity: >99%
[6]
  isolated yield: 17%
Scale 0.105 mmol
  crude mass: 52 mg

## D-Arg-D-Tyr-D-(S)-Bgl-Thr-D-Val-D-Glu-D-Leu-D-Ala-NH2
[5]
  crude HPLC purity: 55%
  final HPLC purity: >99%
[6]
  isolated yield: 6%
Scale 0.052 mmol
  crude mass: 6 mg

## D-Arg-D-Tyr-D-Thr-(R)-Agl-D-Glu-D-Leu-D-Ala-NH2
[4]
  crude HPLC purity: 50%
  final HPLC purity: >99%
[3]
  difficulty met: measurable amounts of products resulting from incomplete lactamization were observed
  isolated yield: 11%

## D-Arg-D-Tyr-D-Thr-(R)-Bab-D-Glu-D-Leu-D-Ala-NH2
[5]
  crude HPLC purity: 6% of 57 crude mixture
  final HPLC purity: >99%
[6]
  isolated yield: 4%

## D-Arg-D-Tyr-D-Thr-(R)-Bgl-D-Glu-D-Leu-D-Ala-NH2
[1]
  final HPLC purity: >99%
[7]
  crude HPLC purity: 79%
[8]
  crude HPLC purity: 6%
[9]
  isolated yield: 4%
Scale 0.087 mmol, cyclic, sequence written open
  crude mass: 62 mg
Scale 0.087 mmol, formic acid salt (crude: TFA salt), cyclic, sequence written open
  isolated yield: 17%

## D-Arg-D-Tyr-D-Thr-(S)-Agl-D-Glu-D-Leu-D-Ala-NH2
[5]
  crude HPLC purity: 18%
  final HPLC purity: >99%
On resin and lantern loading, formic acid salt (crude: TFA salt)
  isolated yield: 5%

## D-Arg-D-Tyr-D-Thr-(S)-Bgl-D-Glu-D-Leu-D-Ala-NH2
[5]
  crude HPLC purity: 87%
  final HPLC purity: >99%
[6]
  isolated yield: 14%
Scale 0.105 mmol
  crude mass: 28 mg

## D-Arg-D-Tyr-D-Thr-(S)-Bgl-D-Val-D-Glu-D-Leu-D-Ala-NH2
[5]
  crude HPLC purity: 71%
  final HPLC purity: >99%
[6]
  isolated yield: 10%
Scale 0.055 mmol
  crude mass: 16 mg

## D-Arg-D-Tyr-D-Thr-D-Val-(R)-Agl-D-Leu-D-Ala-NH2
[4]
  crude HPLC purity: 36%
  final HPLC purity: >99%
[3]
  isolated yield: 21%

## D-Arg-D-Tyr-D-Thr-D-Val-(R)-Bgl-D-Leu-D-Ala-NH2
[5]
  crude HPLC purity: 87%
  final HPLC purity: >99%
[6]
  isolated yield: 7%
Scale 0.098 mmol
  crude mass: 35 mg

## D-Arg-D-Tyr-D-Thr-D-Val-(S)-Bgl-D-Glu-D-Leu-D-Ala-NH2
[5]
  crude HPLC purity: 68%
  final HPLC purity: >99%
[6]
  isolated yield: 6%
Scale 0.058 mmol
  crude mass: 7 mg

## D-Arg-D-Tyr-D-Thr-D-Val-(S)-Bgl-D-Leu-D-Ala-NH2
[5]
  crude HPLC purity: 90%
  final HPLC purity: >99%
[6]
  isolated yield: 13%
Scale 0.105 mmol
  crude mass: 40 mg

## D-Arg-D-Tyr-D-Thr-D-Val-D-Glu-(R)-Agl-D-Ala-NH2
[4]
  crude HPLC purity: 81% crude purity
  final HPLC purity: >99%
[3]
  isolated yield: 7%

## D-Arg-D-Tyr-D-Thr-D-Val-D-Glu-(R)-Bgl-D-Ala-NH2
[5]
  crude HPLC purity: 50%
  final HPLC purity: >99%
[6]
  isolated yield: 14%
Scale 0.105 mmol
  crude mass: 35 mg

## D-Arg-D-Tyr-D-Thr-D-Val-D-Glu-(S)-Bgl-D-Ala-NH2
[5]
  crude HPLC purity: 96%
  final HPLC purity: >99%
[6]
  isolated yield: 11%
Scale 0.105 mmol
  crude mass: 29 mg

## D-Arg-D-Tyr-D-Thr-D-Val-D-Glu-(S)-Bgl-D-Leu-D-Ala-NH2
[5]
  crude HPLC purity: 37%
  final HPLC purity: >99%
[6]
  isolated yield: 3%
Scale 0.065 mmol
  crude mass: 20 mg

## D-Arg-D-Tyr-D-Thr-D-Val-D-Glu-D-Leu-(S)-Bgl-D-Ala-NH2
[5]
  crude HPLC purity: 97%
  final HPLC purity: >99%
[6]
  isolated yield: 18%
Scale 0.070 mmol
  crude mass: 27 mg

## D-Bgl-D-Tyr-Iaa-D-Glu-D-Leu-NH2
[10]
  crude HPLC purity: 48%
  final HPLC purity: >98%
[6]
  isolated yield: 13%

## His-(R)-Agl-Ala-Trp-D-Phe-Lys-NH2
[1]
  final HPLC purity: >99%
[2]
  crude HPLC purity: 45%
[3]
  isolated yield: 12%

## His-(R)-Bgl-Ala-Trp-D-Phe-Lys-NH2
[1]
  final HPLC purity: >99%
[7]
  crude HPLC purity: 31%
[8]
  crude HPLC purity: 35%
Analytical RP-HPLC (UV 214), formic acid salt (crude: TFA salt), cyclic, sequence written open, run 1
  crude purity (method not given): <10%
Analytical RP-HPLC (UV 214), formic acid salt (crude: TFA salt), cyclic, sequence written open, run 2
  crude purity (method not given): 35%
Formic acid salt (crude: TFA salt), cyclic, sequence written open, run 1
  isolated yield: 7.8%
Formic acid salt (crude: TFA salt), cyclic, sequence written open, run 2
  isolated yield: 8%

## His-(S)-Agl-Ala-Trp-D-Phe-Lys-NH2
[4]
  crude HPLC purity: 36%
  final HPLC purity: >99%
[3]
  isolated yield: 22%

## His-(S)-Bgl-Ala-Trp-D-Phe-Lys-NH2
[4]
  crude HPLC purity: 26%
  final HPLC purity: 91%
[3]
  isolated yield: 12%

## His-D-Trp-(R)-Agl-Trp-D-Phe-Lys-NH2
[1]
  final HPLC purity: >98%
[2]
  crude HPLC purity: 30%
[3]
  isolated yield: 4%
